A short description of the data set: Binding of 35S-labeled rhOPN to titanium disks with or without CaCl2. Conditions: 24 h at 4° C.

The source of these data is patent US20060105013A1, “Osteopontin-coated surfaces and methods of use” (priority 2000, published 2006).

Turning to “rhOPN: human recombinant phosphorylated form of osteopontin”, the “rhOPN at which Ti disks saturate” value is 60 µg (absence of added CaCl2) and “more than 110 μg protein/disks” (presence of 100 mM CaCl2).
